PubChem BioAssay AID652243 – Drosophila RNAi Screening Center, 2013

Screen: 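Knock-downs that decrease or increase androgen receptor reporter signal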 (primary screen)
Cell system: Drosophila S2R+ cells
Reagent: long dsRNA against Drosophila genes
Time to read-out: 72 h (48 h, then 24 h hormone)
Conditions: synthetic androgen R1881 at 10 nM for 24 h
Read-out: 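Per-well raw luminescence of the androgen-driven firefly reporter and of the Renilla control, two replicates each, without normalisation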
Scale: firefly reporter light: higher = more light from androgen-responsive reporter; Renilla control light: higher = more constitutive control signal (cell number, transfection)
Active means: 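Hit when the log firefly-to-Renilla ratio dropped or increased by a fixed fold versus the mean of GFP or LacZ controls across duplicate plates; lowering cut given as 1.5 and as 3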
Calls: active = hit: reporter lowered or raised; inactive = no hit
In all, the deposit lists about 24,000 reagents; below is a random part of those with a known target gene and a result. Over the whole deposit, 246 (1%) got an active call. 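Plates not normalised; calls are printed but the firefly/Renilla ratio behind them is not deposited; fold cut for lowering reported inconsistently.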 Raw values vary from plate to plate and are shown uncorrected. The numbers tell different reagents against one gene apart. A plus sign joins genes that one reagent is predicted to hit. The record does not give: the amount of reagent.

Which result is listed for CG12054?
firefly reporter light, replicate 1: 3.88e5; firefly reporter light, replicate 2: 4.85e5; Renilla control light, replicate 1: 2.20e6; Renilla control light, replicate 2: 2.72e6; Outcome: active

With GV1 #1, what was measured?
firefly reporter light, replicate 1: 47689; firefly reporter light, replicate 2: 80542; Renilla control light, replicate 1: 1.34e6; Renilla control light, replicate 2: 1.53e6; Outcome: inactive

What did the screen give for GV1 #2?
firefly reporter light, replicate 1: 3.30e5; firefly reporter light, replicate 2: 3.61e5; Renilla control light, replicate 1: 6.37e5; Renilla control light, replicate 2: 5.96e5; Outcome: inactive

What did the screen give for Acam + CG17770 #1?
firefly reporter light, replicate 1: 1.80e5; firefly reporter light, replicate 2: 1.97e5; Renilla control light, replicate 1: 1.79e6; Renilla control light, replicate 2: 2.04e6; Outcome: inactive

With Acam + CG17770 #2, what does the deposit list?
firefly reporter light, replicate 1: 1.60e5; firefly reporter light, replicate 2: 1.67e5; Renilla control light, replicate 1: 2.57e6; Renilla control light, replicate 2: 2.75e6; Outcome: inactive

With Acam + CG17770 #3, what was measured?
firefly reporter light, replicate 1: 8.12e5; firefly reporter light, replicate 2: 8.95e5; Renilla control light, replicate 1: 6.37e5; Renilla control light, replicate 2: 7.36e5; Outcome: inactive

How did the screen score Acam + CG17770 #4?
firefly reporter light, replicate 1: 4.64e5; firefly reporter light, replicate 2: 6.25e5; Renilla control light, replicate 1: 6.65e5; Renilla control light, replicate 2: 6.65e5; Outcome: inactive

What is on record for Acam + CG17770 #5?
firefly reporter light, replicate 1: 4.81e5; firefly reporter light, replicate 2: 4.37e5; Renilla control light, replicate 1: 1.21e6; Renilla control light, replicate 2: 1.15e6; Outcome: inactive

Which result is listed for Nup35?
firefly reporter light, replicate 1: 59057; firefly reporter light, replicate 2: 75420; Renilla control light, replicate 1: 7.11e5; Renilla control light, replicate 2: 9.62e5; Outcome: active

What did the screen give for Syx8 #1?
firefly reporter light, replicate 1: 2.38e5; firefly reporter light, replicate 2: 1.91e5; Renilla control light, replicate 1: 2.27e6; Renilla control light, replicate 2: 2.09e6; Outcome: inactive

With Syx8 #2, how do the results read?
firefly reporter light, replicate 1: 3.65e5; firefly reporter light, replicate 2: 7.52e5; Renilla control light, replicate 1: 9.38e5; Renilla control light, replicate 2: 1.67e6; Outcome: inactive

What did the screen give for Syx8 #3?
firefly reporter light, replicate 1: 3.86e5; firefly reporter light, replicate 2: 3.78e5; Renilla control light, replicate 1: 5.72e5; Renilla control light, replicate 2: 1.08e6; Outcome: inactive

For SerRS, what was measured?
firefly reporter light, replicate 1: 8.23e5; firefly reporter light, replicate 2: 6.15e5; Renilla control light, replicate 1: 2.95e6; Renilla control light, replicate 2: 2.13e6; Outcome: inactive

What is on record for BomS5?
firefly reporter light, replicate 1: 8.32e5; firefly reporter light, replicate 2: 7.64e5; Renilla control light, replicate 1: 2.46e6; Renilla control light, replicate 2: 2.03e6; Outcome: inactive
